The list shows a part of the results.
Assays:
Test in all cases: log2 fold change, soluble protein after heating vs DMSO (PISA); higher = thermal stabilisation; K562 cells, 10 uM, 30 min; active = over 0.2 and 3.5 SD of the protein, either way, in both replicates (recomputed)
saracatinib = compound: CN1CCN(CCOc2cc(OC3CCOCC3)c3c(Nc4c(Cl)ccc5c4OCO5)ncnc3c2)CC1 [saracatinib]
Method in brief: (§1)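 Soluble protein was defined as the supernatant after 21,000xg for 90 min. It came from K562 cells at 2×10^6 cells/mL given 10 μM compound for 30 min, heated in aliquots for 3 min across 48°C-58°C, pooled, and extracted in PBS with 0.5% NP-40 at 4°C, and was quantified by TMTpro 16plex LC-MS/MS with equalised channel sums. Thermal stability against control samples, from duplicates, is reported as log2 fold change.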

The chains behind the UniProt entries cited, without tags or fusion partners. Where a name states a change or a piece, a line headed by the entry shows the natural chain unless it says otherwise.
UniProt Q1KMD3: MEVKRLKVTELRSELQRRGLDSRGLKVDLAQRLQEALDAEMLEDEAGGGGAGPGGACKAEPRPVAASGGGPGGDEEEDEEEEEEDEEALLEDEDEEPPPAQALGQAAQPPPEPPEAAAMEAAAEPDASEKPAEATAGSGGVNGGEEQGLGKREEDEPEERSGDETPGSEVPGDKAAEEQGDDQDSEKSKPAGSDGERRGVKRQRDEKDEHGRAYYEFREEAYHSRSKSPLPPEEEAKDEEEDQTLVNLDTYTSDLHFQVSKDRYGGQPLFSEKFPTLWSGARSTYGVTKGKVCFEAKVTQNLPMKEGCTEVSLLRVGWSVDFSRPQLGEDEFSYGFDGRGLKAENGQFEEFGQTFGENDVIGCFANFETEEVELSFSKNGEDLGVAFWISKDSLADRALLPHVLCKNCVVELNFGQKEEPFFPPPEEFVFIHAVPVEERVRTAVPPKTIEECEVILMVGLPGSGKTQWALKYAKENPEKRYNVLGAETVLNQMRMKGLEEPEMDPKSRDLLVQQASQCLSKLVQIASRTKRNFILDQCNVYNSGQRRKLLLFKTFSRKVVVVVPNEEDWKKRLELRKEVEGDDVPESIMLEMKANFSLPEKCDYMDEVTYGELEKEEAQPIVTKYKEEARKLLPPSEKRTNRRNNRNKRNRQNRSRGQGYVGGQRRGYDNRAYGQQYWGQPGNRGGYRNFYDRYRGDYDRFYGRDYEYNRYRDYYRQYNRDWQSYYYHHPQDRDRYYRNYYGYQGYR
UniProt P52789: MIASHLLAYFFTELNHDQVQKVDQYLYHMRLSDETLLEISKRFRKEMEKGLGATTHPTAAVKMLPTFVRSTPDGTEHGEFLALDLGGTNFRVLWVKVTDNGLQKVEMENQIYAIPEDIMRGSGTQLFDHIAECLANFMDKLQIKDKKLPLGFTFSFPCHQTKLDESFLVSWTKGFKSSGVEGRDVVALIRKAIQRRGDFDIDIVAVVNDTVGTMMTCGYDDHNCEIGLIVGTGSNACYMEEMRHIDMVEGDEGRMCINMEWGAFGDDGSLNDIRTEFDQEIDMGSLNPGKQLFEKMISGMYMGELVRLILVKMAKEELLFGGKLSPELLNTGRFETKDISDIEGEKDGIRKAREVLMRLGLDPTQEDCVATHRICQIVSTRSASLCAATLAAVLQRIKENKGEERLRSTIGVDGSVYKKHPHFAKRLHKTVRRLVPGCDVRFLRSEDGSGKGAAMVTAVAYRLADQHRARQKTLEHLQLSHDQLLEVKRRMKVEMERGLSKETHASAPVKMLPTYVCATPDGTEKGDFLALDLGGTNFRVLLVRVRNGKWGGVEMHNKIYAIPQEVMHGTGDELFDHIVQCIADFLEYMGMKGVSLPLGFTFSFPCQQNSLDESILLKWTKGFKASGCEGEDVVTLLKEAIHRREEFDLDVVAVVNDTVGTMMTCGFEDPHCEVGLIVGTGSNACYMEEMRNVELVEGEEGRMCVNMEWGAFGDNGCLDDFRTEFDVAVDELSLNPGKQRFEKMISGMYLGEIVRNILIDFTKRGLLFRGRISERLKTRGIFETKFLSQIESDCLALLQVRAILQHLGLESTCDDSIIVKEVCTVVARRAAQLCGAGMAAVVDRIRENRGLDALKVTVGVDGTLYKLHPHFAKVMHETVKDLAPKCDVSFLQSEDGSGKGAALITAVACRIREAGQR
UniProt O75146: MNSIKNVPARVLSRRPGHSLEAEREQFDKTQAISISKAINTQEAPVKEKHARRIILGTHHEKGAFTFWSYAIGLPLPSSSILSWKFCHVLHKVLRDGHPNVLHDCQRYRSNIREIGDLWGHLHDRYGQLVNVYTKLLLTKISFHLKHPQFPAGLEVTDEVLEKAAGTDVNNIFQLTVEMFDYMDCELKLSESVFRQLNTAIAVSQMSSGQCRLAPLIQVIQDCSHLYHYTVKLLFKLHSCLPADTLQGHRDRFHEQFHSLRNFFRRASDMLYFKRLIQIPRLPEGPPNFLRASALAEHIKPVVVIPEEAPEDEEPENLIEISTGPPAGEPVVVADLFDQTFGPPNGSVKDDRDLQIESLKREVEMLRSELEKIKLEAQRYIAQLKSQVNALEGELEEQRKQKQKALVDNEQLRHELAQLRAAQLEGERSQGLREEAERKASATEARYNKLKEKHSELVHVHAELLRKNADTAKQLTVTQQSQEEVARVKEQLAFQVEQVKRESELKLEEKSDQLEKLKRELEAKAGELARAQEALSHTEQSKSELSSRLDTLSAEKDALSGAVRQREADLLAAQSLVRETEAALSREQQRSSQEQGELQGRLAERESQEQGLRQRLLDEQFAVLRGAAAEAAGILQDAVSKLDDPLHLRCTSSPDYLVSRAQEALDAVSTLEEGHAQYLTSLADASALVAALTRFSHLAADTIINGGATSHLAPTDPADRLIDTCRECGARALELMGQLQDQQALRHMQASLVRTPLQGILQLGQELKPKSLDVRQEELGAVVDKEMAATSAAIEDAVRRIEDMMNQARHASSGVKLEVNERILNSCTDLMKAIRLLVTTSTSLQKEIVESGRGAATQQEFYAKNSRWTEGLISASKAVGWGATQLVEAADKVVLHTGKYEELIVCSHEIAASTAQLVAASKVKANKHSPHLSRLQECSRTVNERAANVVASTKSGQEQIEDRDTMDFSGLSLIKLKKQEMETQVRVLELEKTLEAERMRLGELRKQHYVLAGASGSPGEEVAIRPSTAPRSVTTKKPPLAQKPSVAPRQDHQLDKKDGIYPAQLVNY
UniProt Q96FZ2: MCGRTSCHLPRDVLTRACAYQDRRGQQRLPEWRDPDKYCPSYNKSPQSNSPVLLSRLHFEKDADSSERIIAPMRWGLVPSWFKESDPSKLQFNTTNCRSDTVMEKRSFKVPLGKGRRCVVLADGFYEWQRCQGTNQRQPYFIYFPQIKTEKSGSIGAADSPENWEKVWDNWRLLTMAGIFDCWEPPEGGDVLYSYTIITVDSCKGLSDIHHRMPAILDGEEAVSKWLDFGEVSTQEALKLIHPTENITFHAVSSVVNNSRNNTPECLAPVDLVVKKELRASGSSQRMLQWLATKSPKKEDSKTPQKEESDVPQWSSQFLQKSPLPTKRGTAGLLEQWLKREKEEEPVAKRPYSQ
UniProt P30519: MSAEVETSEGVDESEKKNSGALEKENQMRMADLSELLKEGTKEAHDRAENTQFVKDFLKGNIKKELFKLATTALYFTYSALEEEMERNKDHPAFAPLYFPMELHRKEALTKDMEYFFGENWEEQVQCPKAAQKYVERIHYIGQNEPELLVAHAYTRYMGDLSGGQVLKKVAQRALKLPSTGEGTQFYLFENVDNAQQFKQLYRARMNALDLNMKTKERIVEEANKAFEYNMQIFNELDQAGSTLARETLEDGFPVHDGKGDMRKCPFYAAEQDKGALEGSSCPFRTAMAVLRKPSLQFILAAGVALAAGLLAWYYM
UniProt Q5SSJ5: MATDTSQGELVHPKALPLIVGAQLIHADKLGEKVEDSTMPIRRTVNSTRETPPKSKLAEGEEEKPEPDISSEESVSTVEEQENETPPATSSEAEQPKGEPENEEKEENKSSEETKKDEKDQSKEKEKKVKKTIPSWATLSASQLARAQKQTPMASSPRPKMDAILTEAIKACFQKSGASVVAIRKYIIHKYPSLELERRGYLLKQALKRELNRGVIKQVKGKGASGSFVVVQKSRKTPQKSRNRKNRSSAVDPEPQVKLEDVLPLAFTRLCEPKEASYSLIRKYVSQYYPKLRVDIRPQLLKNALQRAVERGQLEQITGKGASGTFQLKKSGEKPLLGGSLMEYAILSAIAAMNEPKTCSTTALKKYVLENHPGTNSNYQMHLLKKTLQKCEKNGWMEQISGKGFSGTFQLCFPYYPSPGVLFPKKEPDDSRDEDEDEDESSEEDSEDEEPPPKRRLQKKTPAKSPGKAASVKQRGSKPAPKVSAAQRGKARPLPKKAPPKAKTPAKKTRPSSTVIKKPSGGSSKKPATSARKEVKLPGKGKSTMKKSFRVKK
UniProt Q86VS8: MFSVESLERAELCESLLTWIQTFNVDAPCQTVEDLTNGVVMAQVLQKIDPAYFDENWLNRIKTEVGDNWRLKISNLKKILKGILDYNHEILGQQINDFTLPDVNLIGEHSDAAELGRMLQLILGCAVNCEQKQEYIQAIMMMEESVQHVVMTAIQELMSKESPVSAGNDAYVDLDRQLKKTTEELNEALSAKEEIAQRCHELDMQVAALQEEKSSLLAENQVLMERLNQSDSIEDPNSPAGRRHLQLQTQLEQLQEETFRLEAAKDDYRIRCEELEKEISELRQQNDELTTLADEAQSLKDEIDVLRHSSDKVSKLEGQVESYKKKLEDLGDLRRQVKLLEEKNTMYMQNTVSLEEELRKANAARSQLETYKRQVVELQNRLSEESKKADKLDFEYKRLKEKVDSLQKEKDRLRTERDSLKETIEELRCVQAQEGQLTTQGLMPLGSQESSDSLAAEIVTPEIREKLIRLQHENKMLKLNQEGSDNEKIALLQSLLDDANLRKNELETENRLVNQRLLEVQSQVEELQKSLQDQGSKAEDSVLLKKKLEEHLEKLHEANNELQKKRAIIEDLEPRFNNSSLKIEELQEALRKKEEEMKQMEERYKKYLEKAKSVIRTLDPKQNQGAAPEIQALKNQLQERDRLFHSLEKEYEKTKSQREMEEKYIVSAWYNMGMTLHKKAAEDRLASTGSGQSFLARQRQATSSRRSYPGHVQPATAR
UniProt P52597: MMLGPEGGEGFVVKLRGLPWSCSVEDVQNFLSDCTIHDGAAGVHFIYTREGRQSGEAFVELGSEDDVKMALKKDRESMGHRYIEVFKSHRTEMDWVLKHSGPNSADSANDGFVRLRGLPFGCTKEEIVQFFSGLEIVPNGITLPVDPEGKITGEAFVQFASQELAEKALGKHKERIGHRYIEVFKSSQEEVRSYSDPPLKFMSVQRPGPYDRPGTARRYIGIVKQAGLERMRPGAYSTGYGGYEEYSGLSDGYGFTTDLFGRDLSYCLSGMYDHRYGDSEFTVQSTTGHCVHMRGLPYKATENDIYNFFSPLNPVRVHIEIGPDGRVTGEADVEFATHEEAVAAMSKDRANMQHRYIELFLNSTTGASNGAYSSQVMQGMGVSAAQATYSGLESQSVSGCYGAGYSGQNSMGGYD
UniProt P05114: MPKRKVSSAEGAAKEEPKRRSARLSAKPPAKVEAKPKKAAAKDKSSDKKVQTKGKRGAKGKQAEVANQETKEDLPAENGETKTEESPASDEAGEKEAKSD
UniProt P31943: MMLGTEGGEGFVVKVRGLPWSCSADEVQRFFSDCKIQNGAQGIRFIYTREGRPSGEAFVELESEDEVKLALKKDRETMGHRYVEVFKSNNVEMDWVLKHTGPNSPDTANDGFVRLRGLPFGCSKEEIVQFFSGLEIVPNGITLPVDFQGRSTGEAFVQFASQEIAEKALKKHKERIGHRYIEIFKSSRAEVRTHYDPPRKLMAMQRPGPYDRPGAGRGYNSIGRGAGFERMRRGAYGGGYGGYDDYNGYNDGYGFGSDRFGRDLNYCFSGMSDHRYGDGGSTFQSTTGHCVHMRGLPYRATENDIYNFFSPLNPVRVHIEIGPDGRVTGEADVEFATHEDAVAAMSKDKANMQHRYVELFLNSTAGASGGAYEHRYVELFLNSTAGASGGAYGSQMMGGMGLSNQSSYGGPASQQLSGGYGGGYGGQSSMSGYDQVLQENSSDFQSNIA

alvocidib = compound: CN1CC[C@H](c2c(O)cc(O)c3c(=O)cc(-c4ccccc4Cl)oc23)[C@H](O)C1 [alvocidib]
Method in brief: as §1

Tubastatin A = compound: CN1CCc2c(c3ccccc3n2Cc2ccc(C(=O)NO)cc2)C1 [Tubastatin A]
Method in brief: as §1

[1] = compound: CNC(=O)C1=CC=CC=C1NC2=NC(=NC=C2Cl)NC3=C(C=C(C=C3)N4CCOCC4)OC
Method in brief: as §1

defactinib = compound: CNC(=O)c1ccc(Nc2ncc(C(F)(F)F)c(NCc3nccnc3N(C)S(C)(=O)=O)n2)cc1 [defactinib]
Method in brief: as §1

rucaparib = compound: CNCc1ccc(-c2[nH]c3cc(F)cc4c3c2CCNC4=O)cc1 [rucaparib]
Method in brief: as §1

[2] = compound: CNc1nc(-c2ccc3c(N)n[nH]c3c2)cc(N2C[C@@H](C(=O)NC3CCCCC3)CC[C@H]2C)n1
Method in brief: as §1

encorafenib = compound: COC(=O)N[C@@H](C)CNc1nccc(-c2cn(C(C)C)nc2-c2cc(Cl)cc(NS(C)(=O)=O)c2F)n1 [encorafenib]
Method in brief: as §1

[3] = compound: COC(=O)[C@H](CCSC)NC(=O)C1=C(C=C(C=C1)NC[C@H](CS)N)C2=CC=CC=C2
Method in brief: as §1

sotrastaurin = compound: CN1CCN(c2nc(C3=C(c4c[nH]c5ccccc45)C(=O)NC3=O)c3ccccc3n2)CC1 [sotrastaurin]
Method in brief: as §1

Measured: log2 fold change

HIST2H2AA3 (UniProt Q6FI13)
inactive: saracatinib -0.051 | alvocidib 0.198 | Tubastatin A -0.03 | [1] -0.056 | defactinib 0.569 | rucaparib 0.186 | [2] 0.065 | encorafenib -0.341 | [3] 0.131

HNRNPUL2 (UniProt Q1KMD3)
inactive: saracatinib -0.023 | sotrastaurin 0.039 | Tubastatin A 0.065 | [1] -0.06 | rucaparib 0.125 | [2] -0.017 | encorafenib 0.007 | [3] 0.006
active: defactinib 0.259

HK2 (UniProt P52789)
active: [1] -0.334
inactive: saracatinib 0.008 | sotrastaurin -0.075 | Tubastatin A -0.006 | defactinib -0.08 | rucaparib -0.011 | [2] -0.045 | encorafenib 0.026 | [3] -0.005

HIP1R (UniProt O75146)
inactive: saracatinib 0.051 | sotrastaurin -0.045 | Tubastatin A 0.007 | [1] 0.037 | defactinib -0.063 | rucaparib 0.018 | [2] 0.015 | encorafenib -0.019 | [3] 0.016

HNRNPK isoform 2 (UniProt P61978)
inactive: saracatinib -0.057 | sotrastaurin -0.037 | Tubastatin A 0.064 | [1] -0.017 | rucaparib -0.053 | [2] 0.015 | encorafenib 0.028 | [3] 0.003
active: defactinib -0.228

HMCES (UniProt Q96FZ2)
inactive: saracatinib 0.125 | sotrastaurin -0.028 | Tubastatin A -0.007 | [1] 0.04 | rucaparib -0.146 | [2] 0.069 | encorafenib 0.12

Random excerpt: two entries already listed.
HNRNPUL2 (UniProt Q1KMD3)
inactive: saracatinib -0.023 | sotrastaurin 0.039 | Tubastatin A 0.065 | [1] -0.06 | rucaparib 0.125 | [2] -0.017 | encorafenib 0.007 | [3] 0.006
active: defactinib 0.259

HMCES (UniProt Q96FZ2)
inactive: saracatinib 0.125 | sotrastaurin -0.028 | Tubastatin A -0.007 | [1] 0.04 | rucaparib -0.146 | [2] 0.069 | encorafenib 0.12

(listing goes on)

HMOX2 (UniProt P30519)
inactive: saracatinib -0.071 | sotrastaurin -0.04 | Tubastatin A 0.004 | [1] 0.03 | defactinib -0.049 | rucaparib 0.036 | [2] 0.15 | encorafenib 0.081 | [3] -0.038

HP1BP3 (UniProt Q5SSJ5)
inactive: saracatinib -0.045 | sotrastaurin -0.071 | Tubastatin A 0.06 | [1] -0.045 | defactinib 0.227 | rucaparib -0.041 | [2] -0.001 | encorafenib 0.075 | [3] -0.098

HOOK3 (UniProt Q86VS8)
inactive: saracatinib -0.016 | sotrastaurin -0.166 | Tubastatin A -0.019 | [1] 0.013 | defactinib -0.005 | rucaparib -0.063 | [2] -0.008 | encorafenib 0.022 | [3] -0.007

HNRNPF (UniProt P52597)
inactive: saracatinib -0.042 | sotrastaurin -0.121 | Tubastatin A 0.086 | [1] 0.004 | defactinib -0.253 | rucaparib 0.098 | [2] 0.004 | encorafenib 0.119 | [3] -0.06

HMGN1 (UniProt P05114)
inactive: saracatinib 0.024 | sotrastaurin 0.068 | Tubastatin A -0.087 | [1] 0.03 | defactinib 0.09 | rucaparib 0.043 | [2] -0.064 | encorafenib -0.01 | [3] 0.011

HNRNPH1 (UniProt P31943)
inactive: saracatinib -0.018 | sotrastaurin -0.157 | Tubastatin A 0.076 | [1] -0.065 | defactinib -0.278 | rucaparib 0.08 | [2] 0.058 | encorafenib 0.114 | [3] -0.047
